{
  "source": "PubChem BioAssay",
  "key": {"[1]": {"assay": "LFS_MB_P medulloblastoma growth inhibition, cell-based, chromothripsis tumors, cisplatin or BGB combos (AID 1671449);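 note: cells exposed for 96 hours; 0% = vehicle DMSO and 100% = killing by high DMSO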", "conditions": "LFS_MB_P medulloblastoma cells"}, "[2]": {"assay": "HDN33 neuroblastoma growth inhibition, cell-based, chromothripsis tumors, cisplatin or BGB combos (AID 1671450);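 note: cells exposed to compound for four days; 0% = vehicle DMSO and 100% = cell killing by high DMSO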", "conditions": "HDN33 neuroblastoma cells, stronger effect = higher value"}, "[3]": {"assay": "ICB984 medulloblastoma cell growth inhibition, synergistic combos for chromothripsis tumors, cisplatin or BGB combos (AID 1671451);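 note: cells exposed for 96 hours before readout; 0% = vehicle DMSO and 100% = killing by high DMSO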", "conditions": "ICB984 medulloblastoma cells, drug combinations, stronger effect = higher value"}, "[4]": {"assay": "LFS_MB_1R medulloblastoma cell growth inhibition, synergistic combos for chromothripsis tumors, cisplatin or BGB combos (AID 1671452);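 note: cells exposed for 96 hours before readout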", "conditions": "LFS_MB_1R medulloblastoma cells, stronger effect = higher value"}, "[5]": {"assay": "HTB85 osteosarcoma cell growth inhibition, synergistic combos for chromothripsis tumors, BGB or cisplatin IC20 combos (AID 1671453);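 note: cells exposed for 96 hours before readout; 0% = vehicle DMSO and 100% = high DMSO killing control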", "conditions": "HTB85 osteosarcoma cells, drug combinations, stronger effect = higher value"}, "[6]": {"assay": "CRL2098 osteosarcoma cell growth inhibition, synergistic combos for chromothripsis tumors, BGB or cisplatin IC20 combos (AID 1671454);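 note: cells exposed for 96 h before readout; 0% = vehicle DMSO and 100% = killing by high DMSO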", "conditions": "CRL2098 osteosarcoma cells, drug combinations, stronger effect = higher value"}, "[7]": {"assay": "HD-MB03 medulloblastoma cell growth inhibition, synergistic combos for chromothripsis tumors, BGB or cisplatin IC20 combos (AID 1671455);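 note: 0% = vehicle DMSO and 100% = high DMSO as cytotoxic control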", "conditions": "HD-MB03 medulloblastoma cells, stronger effect = higher value"}, "[8]": {"assay": "UWB1.289 ovarian carcinoma cell growth inhibition, synergistic combos for chromothripsis tumors, BGB or cisplatin combos (AID 1671456);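 note: cells exposed to compound for four days; 0% = vehicle DMSO and 100% = killing by high DMSO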", "conditions": "UWB1.289 ovarian carcinoma cells, at 0.05 µM, stronger effect = higher value"}, "[9]": {"assay": "LFS_MB_2R medulloblastoma cell growth inhibition, synergistic combos for chromothripsis tumors, cisplatin combos (AID 1671457);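 note: cells exposed to compound for four days before readout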", "conditions": "LFS_MB_2R medulloblastoma cells, measured here: combination with cisplatin, stronger effect = higher value"}, "[10]": {"assay": "MDA-MB-436 breast carcinoma cell growth inhibition, synergistic combos for chromothripsis tumors, BGB or cisplatin combos (AID 1671458);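 note: cells exposed for 96 hours; 0% = vehicle DMSO and 100% = killing by high DMSO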", "conditions": "MDA-MB-436 breast carcinoma growth inhibition, drug combinations, stronger effect = higher value"}, "[11]": {"assay": "UWB1.289_BRCA1 ovarian cancer growth, cell-based, BGB or cisplatin combinations (AID 1671459)", "conditions": "UWB1.289 BRCA1 ovarian carcinoma, drug combinations, concentration series, at 5 µM, stronger effect = higher value"}, "[12]": {"assay": "human astrocyte viability loss, single and combined drugs, cytotoxicity control for chromothriptic childhood tumor combination screen, cell-based, BGB or cisplatin IC20 combos (AID 1671460);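 note: cells exposed to compounds for 96 hours before viability readout; 0% = vehicle and 100% = killing control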", "conditions": "Human astrocytes, drug combinations, stronger effect = higher value"}, "[13]": {"assay": "growth inhibition of BT084 medulloblastoma cells, cell-based, ICGC_MB145, cisplatin and BGB IC40 combos (AID 1671461);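 note: cells exposed to drugs for 96 hours; 0% = vehicle DMSO and 100% = high DMSO full killing control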", "conditions": "drug combinations, stronger effect = higher value"}, "[14]": {"assay": "growth inhibition of RCMB18 medulloblastoma cells, cell-based, cisplatin and BGB IC40 combos (AID 1671462);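 note: cells exposed to compound for four days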", "conditions": "stronger effect = higher value"}, "[15]": {"assay": "growth inhibition of CRL1545 osteosarcoma cells, cell-based, cisplatin and BGB IC20 combos (AID 1671464);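 note: cells exposed to compound for 96 hours before readout; 0% = vehicle DMSO and 100% = high DMSO killing control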", "conditions": "stronger effect = higher value"}, "[16]": {"conditions": "measured here: combination with BGB IC40, at 0.05 µM"}, "[17]": {"conditions": "measured here: with BGB IC20 combination, at 0.5 µM"}, "[18]": {"conditions": "measured here: with cisplatin IC20 combination, at 0.5 µM"}, "[19]": {"conditions": "measured here: combination with cisplatin, at 0.5 µM"}},
  "note": "This is one part of the list.",
  "data": [
    {"smiles": "CN(CCCl)CCCl", "values": [
      {"measurement": "inhibition", "setting": "[1]; measured here: combination with BGB IC20, at 0.005 µM", "value": -24, "unit": "%"},
      {"measurement": "inhibition", "setting": "[1]; measured here: combination with BGB IC40, at 0.005 µM", "value": -8.04, "unit": "%"},
      {"measurement": "inhibition", "setting": "[1]; [16]", "value": -5.12, "unit": "%"},
      {"measurement": "inhibition", "setting": "[1]; measured here: combination with cisplatin, at 0.5 µM, stronger effect = higher value", "value": -44.2, "unit": "%"},
      {"measurement": "inhibition", "setting": "[1]; measured here: combination with cisplatin, at 5 µM, stronger effect = higher value", "value": 2.66, "unit": "%"},
      {"measurement": "inhibition", "setting": "[2]; BGB combo, at 5 µM", "value": 52.5, "unit": "%"},
      {"measurement": "inhibition", "setting": "[2]; cisplatin combo, at 5 µM", "value": 21.8, "unit": "%"},
      {"measurement": "inhibition", "setting": "[2]; [17]", "value": -16.7, "unit": "%"},
      {"measurement": "inhibition", "setting": "[2]; [18]", "value": -26.7, "unit": "%"},
      {"measurement": "inhibition", "setting": "[2]; single agent, at 5 µM", "value": 21.5, "unit": "%"},
      {"measurement": "inhibition", "setting": "[3]; BGB IC20 combo, at 0.005 µM", "value": -10.7, "unit": "%"},
      {"measurement": "inhibition", "setting": "[3]; BGB IC40 combo, at 0.005 µM", "value": -25.4, "unit": "%"},
      {"measurement": "inhibition", "setting": "[3]; BGB IC40 combo, at 0.05 µM", "value": 26.9, "unit": "%"},
      {"measurement": "inhibition", "setting": "[3]; cisplatin combo, at 0.05 µM", "value": 24.9, "unit": "%"},
      {"measurement": "inhibition", "setting": "[3]; cisplatin combo, at 0.5 µM", "value": -47.1, "unit": "%"},
      {"measurement": "inhibition", "setting": "[3]; cisplatin combo, at 5 µM", "value": -39.3, "unit": "%"},
      {"measurement": "inhibition", "setting": "[3]; measured here: 5 uM single agent, at 5 µM", "value": -13, "unit": "%"},
      {"measurement": "inhibition", "setting": "[4]; [16]", "value": -55, "unit": "%"},
      {"measurement": "inhibition", "setting": "[4]; [19]", "value": -93.7, "unit": "%"},
      {"measurement": "inhibition", "setting": "[4]; measured here: combination with cisplatin, at 5 µM", "value": 29.8, "unit": "%"},
      {"measurement": "inhibition", "setting": "[5]; measured here: with BGB IC20, at 0.5 µM", "value": -3.48, "unit": "%"},
      {"measurement": "inhibition", "setting": "[5]; measured here: with BGB IC20, at 5 µM", "value": 67.5, "unit": "%"},
      {"measurement": "inhibition", "setting": "[5]; measured here: with cisplatin IC20, at 0.5 µM", "value": -13.2, "unit": "%"},
      {"measurement": "inhibition", "setting": "[5]; measured here: with cisplatin IC20, at 5 µM", "value": 40.7, "unit": "%"},
      {"measurement": "inhibition", "setting": "[5]; single agent, at 5 µM", "value": 18.5, "unit": "%"},
      {"measurement": "inhibition", "setting": "[6]; measured here: combination with BGB at IC20, at 0.5 µM", "value": -107, "unit": "%"},
      {"measurement": "inhibition", "setting": "[6]; measured here: combination with cisplatin at IC20, at 0.5 µM", "value": -91.7, "unit": "%"},
      {"measurement": "inhibition", "setting": "[7]; measured here: combo with BGB at IC20, at 0.5 µM", "value": 42.6, "unit": "%"},
      {"measurement": "inhibition", "setting": "[7]; measured here: combo with cisplatin at IC20, at 0.5 µM", "value": 13.6, "unit": "%"},
      {"measurement": "inhibition", "setting": "[8]; measured here: inhibition with BGB combination", "value": -24.2, "unit": "%"},
      {"measurement": "inhibition", "setting": "[8]; measured here: inhibition with cisplatin combination", "value": -14.4, "unit": "%"},
      {"measurement": "inhibition", "setting": "[9]; at 0.5 µM", "value": -10.8, "unit": "%"},
      {"measurement": "inhibition", "setting": "[9]; at 5 µM", "value": -40.7, "unit": "%"},
      {"measurement": "inhibition", "setting": "[10]; measured here: BGB combination, at 0.5 µM", "value": 15.8, "unit": "%"},
      {"measurement": "inhibition", "setting": "[10]; measured here: BGB combination, at 5 µM", "value": 51.6, "unit": "%"},
      {"measurement": "inhibition", "setting": "[10]; measured here: cisplatin combination, at 0.5 µM", "value": 25.9, "unit": "%"},
      {"measurement": "inhibition", "setting": "[10]; measured here: cisplatin combination, at 5 µM", "value": 55.3, "unit": "%"},
      {"measurement": "inhibition", "setting": "[11]; BGB combination", "value": -2.08, "unit": "%"},
      {"measurement": "inhibition", "setting": "[11]; cisplatin combination", "value": 9.72, "unit": "%"},
      {"measurement": "inhibition", "setting": "[12]; measured here: combo with BGB IC20, at 0.5 µM", "value": 8.54, "unit": "%"},
      {"measurement": "inhibition", "setting": "[12]; measured here: combo with cisplatin IC20, at 0.5 µM", "value": -41.1, "unit": "%"},
      {"measurement": "inhibition", "setting": "[13]; cisplatin combination, at 0.5 µM", "value": -2.91, "unit": "%"},
      {"measurement": "inhibition", "setting": "[13]; cisplatin combination, at 5 µM", "value": 28.5, "unit": "%"},
      {"measurement": "inhibition", "setting": "[13]; measured here: BGB IC40 combination 0.05 uM, at 0.05 µM", "value": -24.5, "unit": "%"},
      {"measurement": "inhibition", "setting": "[13]; single agent, at 5 µM", "value": -18.7, "unit": "%"},
      {"measurement": "inhibition", "setting": "[14]; cisplatin combo, at 5 µM", "value": 43.8, "unit": "%"},
      {"measurement": "inhibition", "setting": "[14]; measured here: BGB IC40 combination, at 0.05 µM", "value": -4.74, "unit": "%"},
      {"measurement": "inhibition", "setting": "[14]; [19]", "value": -54.5, "unit": "%"},
      {"measurement": "inhibition", "setting": "[14]; single agent, at 5 µM", "value": -6.45, "unit": "%"},
      {"measurement": "inhibition", "setting": "[15]; [17]", "value": -18.4, "unit": "%"},
      {"measurement": "inhibition", "setting": "[15]; [18]", "value": -25.8, "unit": "%"},
      {"measurement": "inhibition", "setting": "[15]; single agent, at 0.05 µM", "value": -88.1, "unit": "%"},
      {"measurement": "inhibition", "setting": "[15]; single agent, at 5 µM", "value": 61.1, "unit": "%"}
    ]}
  ]
}
